No constants are given. Whether binding was seen depends on the method and setting. Binding seen in cells or lysates may run through a third protein. Some entries that bind do so weakly or less than the wild type.

This test deals with T1, CD109 (Cluster of Differentiation 109) (human (endogenous in A431 and SCC9)), Q6YHK3.
T1 chain: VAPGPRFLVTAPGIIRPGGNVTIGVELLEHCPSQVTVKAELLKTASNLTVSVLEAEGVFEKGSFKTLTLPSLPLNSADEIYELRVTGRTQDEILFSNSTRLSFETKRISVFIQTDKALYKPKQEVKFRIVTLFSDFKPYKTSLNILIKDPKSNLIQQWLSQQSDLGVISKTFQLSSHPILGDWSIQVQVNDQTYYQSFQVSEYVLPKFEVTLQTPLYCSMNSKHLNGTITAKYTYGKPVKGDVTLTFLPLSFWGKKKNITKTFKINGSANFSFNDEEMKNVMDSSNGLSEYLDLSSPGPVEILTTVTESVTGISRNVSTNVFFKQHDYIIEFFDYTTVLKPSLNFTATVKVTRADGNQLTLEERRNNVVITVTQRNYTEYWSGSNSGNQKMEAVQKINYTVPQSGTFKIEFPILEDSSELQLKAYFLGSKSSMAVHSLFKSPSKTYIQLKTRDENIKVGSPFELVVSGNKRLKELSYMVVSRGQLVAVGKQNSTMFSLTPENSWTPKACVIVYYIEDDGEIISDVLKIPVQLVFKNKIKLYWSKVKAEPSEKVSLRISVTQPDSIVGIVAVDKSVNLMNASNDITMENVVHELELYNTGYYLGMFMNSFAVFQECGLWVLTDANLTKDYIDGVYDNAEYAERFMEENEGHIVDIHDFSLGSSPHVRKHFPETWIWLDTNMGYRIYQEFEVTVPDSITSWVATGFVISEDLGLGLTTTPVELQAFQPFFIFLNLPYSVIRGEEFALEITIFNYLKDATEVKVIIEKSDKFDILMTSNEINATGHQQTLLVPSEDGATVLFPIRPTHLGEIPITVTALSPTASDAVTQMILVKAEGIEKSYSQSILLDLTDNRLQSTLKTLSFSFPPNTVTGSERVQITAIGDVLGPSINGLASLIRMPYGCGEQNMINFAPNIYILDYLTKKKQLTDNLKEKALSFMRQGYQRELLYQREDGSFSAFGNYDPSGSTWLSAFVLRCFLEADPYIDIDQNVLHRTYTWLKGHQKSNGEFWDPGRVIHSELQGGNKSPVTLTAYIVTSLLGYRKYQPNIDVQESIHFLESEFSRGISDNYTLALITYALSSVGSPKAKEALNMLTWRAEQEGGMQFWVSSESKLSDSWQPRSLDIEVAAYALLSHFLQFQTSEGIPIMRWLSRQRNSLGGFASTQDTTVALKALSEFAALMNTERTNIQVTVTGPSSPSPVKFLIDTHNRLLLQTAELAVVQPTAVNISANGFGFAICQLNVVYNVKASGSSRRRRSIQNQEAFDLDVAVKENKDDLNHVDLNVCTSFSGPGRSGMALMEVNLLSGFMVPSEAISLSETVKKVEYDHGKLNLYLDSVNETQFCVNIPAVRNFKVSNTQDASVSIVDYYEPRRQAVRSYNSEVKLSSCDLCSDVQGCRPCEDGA
Kind of test: co-IP; endogenous proteins in total cell lysates (Pierce IP Lysis Buffer); 500 μg protein with 2.5 μg/ml antibody (anti-CD109, anti-IL6Rα, anti-STAT3 or anti-NRF2) overnight at 4 °C, Protein G magnetic beads, Western blot; control IgG; cells without or with 20 ng/ml IL-6 (25 min by the methods; overnight for STAT3-NRF2 by the legend of Fig. 7A). The conditions noted are these: remark: other sources report otherwise. Background: A western blot detects proteins with antibodies after separation by electrophoresis.

B1: Glycoprotein 130, P40189 23-918 (receptor)
chain: ELLDPCGYISPESPVVQLHSNFTAVCVLKEKCMDYFHVNANYIVWKTNHFTIPKEQYTIINRTASSVTFTDIASLNIQLTCNILTFGQLEQNVYGITIISGLPPEKPKNLSCIVNEGKKMRCEWDGGRETHLETNFTLKSEWATHKFADCKAKRDTPTSCTVDYSTVYFVNIEVWVEAENALGKVTSDHINFDPVYKVKPNPPHNLSVINSEELSSILKLTWTNPSIKSVIILKYNIQYRTKDASTWSQIPPEDTASTRSSFTVQDLKPFTEYVFRIRCMKEDGKGYWSDWSEEASGITYEDRPSKAPSFWYKIDPSHTQGYRTVQLVWKTLPPFEANGKILDYEVTLTRWKSHLQNYTVNATKLTVNLTNDRYLATLTVRNLVGKSDAAVLTIPACDFQATHPVMDLKAFPKDNMLWVEWTTPRESVKKYILEWCVLSDKAPCITDWQQEDGTVHRTYLRGNLAESKCYLITVTPVYADGPGSPESIKAYLKQAPPSKGPTVRTKKVGKNEAVLEWDQLPVDVQNGFIRNYTIFYRTIIGNETAVNVDSSHTEYTLSSLTSDTLYMVRMAAYTDEGGKDGPEFTFTTPKFAQGEIEAIVVPVCLAFLLTTLLGVLFCFNKRDLIKKHIWPNVPDPSKSHIAQWSPHTPPRHNFNSKDQMYSDGNFTDVSVVEIEANDKKPFPEDLKSLDLFKKEKINTEGHSSGIGGSSCMSSSRPSISSSDENESSQNTSSTVQYSTVVHSGYRHQVPSVQVFSRSESTQPLLDSEERPEDLQLVDHVDGGDGILPRQQYFKQNCSQHESSPDISHFERSKQVSSVNEEDFVRLKQQISDHISQSCGSGQMKMFQEVSAADAFGPGTEGQVERFETVGMEAATDEGMPKSYLPQTVRQGGYMPQ
Consider B1, for which the binding result is recorded as “binds”.

For the origin of these results see article PMC12046912.
